# In US20070128157A1:
# Protein sequences, listed by entry. Tags and fused reporters are not part of them.
# UniProt P10415: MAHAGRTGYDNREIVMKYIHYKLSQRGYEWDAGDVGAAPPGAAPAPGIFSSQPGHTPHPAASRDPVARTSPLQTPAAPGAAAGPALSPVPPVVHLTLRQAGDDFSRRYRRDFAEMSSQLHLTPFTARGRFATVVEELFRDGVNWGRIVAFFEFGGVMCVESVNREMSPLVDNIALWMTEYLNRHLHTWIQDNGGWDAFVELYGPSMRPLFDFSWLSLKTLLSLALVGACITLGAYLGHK
# No constants are given. Whether binding was seen depends on the method and setting. Some results given as binding are weak or reduced against the parent protein; the word gives no strength.
# B1: iASPP (protein)
# chain: MWMKDPVARPLSPTRLQPALPPEAQSVPELEEVARVLAEIPRPLKRRGSMEQAPAVALPPTHKKQYQQIISRLFHRHGGPGPGGRSQSCPPSLRDLRPGQGPLLLPHQLPFHRPAPSQSSPPEQPQSMEMRSVLRKAGSPRKARRARLNPLVLLLDAALTGELEVVQQAVKEMNDPSQPNEEGITALHNAICGANYSIVDFLITAGANVNSPDSHGWTPLHCAASCNDTVICMALVQHGAAIFATTLSDGATAFEKCDPYREGYADCATYLADVEQSMGLMNSGAVYALWDYSAEFGDELSFREGESVTVLRRDGPEETDWWWAALHGQEGYVPRNYFGLFPRVKPQRSKV
# Target: Bcl-2 (UniProt P10415)
# Test: in vitro binding / immunoprecipitation (FIG. 7)
binder,measurement,value
B1,binding,binds
